Record: PubChem BioAssay AID686937 (Drosophila RNAi Screening Center, 2013)
Aim: 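Genes whose loss weakens secretory pathway function in fly cells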 (primary screen). System: Drosophila S2 cells expressing secreted horseradish peroxidase. Reagent: long dsRNA against Drosophila genes. Time to read-out: about 5.5 days (5 days dsRNA, then 12 h reporter induction). Challenge: reporter expression induced after 5 days of dsRNA, read 12 h later; inducer not stated. Read-out: 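After 5 days of dsRNA and 12 h of reporter induction, medium peroxidase read by chemiluminescence and scored as per-plate z-score; higher values mean more reporter released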. Direction: z-score: higher = more reporter secreted into medium.
In all, the deposit lists about 23,000 reagents; below is a random part of those with a known target gene and a result. 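Reduced-secretion tags in replicate 1 do not always agree with the z-scores; no criterion for assigning the tags was given.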 Reagents against one gene are numbered here. A plus sign joins genes that one reagent is predicted to hit. Not all columns of the deposit are shown. Reagent sequences are not shown. Not given: the amount of reagent.

{"target gene":"MsrA","dsRNA no.":1,"z-score, replicate 1":0.34}
{"target gene":"l(3)80Fj","dsRNA no.":1,"z-score, replicate 1":-0.4}
{"target gene":"l(3)80Fj","dsRNA no.":2,"z-score, replicate 1":0.02}
{"target gene":"Psf3","dsRNA no.":1,"z-score, replicate 1":0.44}
{"target gene":"Psf3","dsRNA no.":2,"z-score, replicate 1":0.26}
{"target gene":"CG31288","dsRNA no.":1,"z-score, replicate 1":0.19}
{"target gene":"CG17327","dsRNA no.":1,"z-score, replicate 1":0.62}
{"target gene":"TRAM","dsRNA no.":1,"z-score, replicate 1":0.32}
{"target gene":"TRAM","dsRNA no.":2,"z-score, replicate 1":0.16}
{"target gene":"Cpr","dsRNA no.":1,"z-score, replicate 1":0.29}
{"target gene":"CG32213 + CG12519 + 825-Oak + 1 more","dsRNA no.":1,"z-score, replicate 1":0.27}
{"target gene":"Rpi","dsRNA no.":1,"z-score, replicate 1":-0.01}
{"target gene":"CG4686","dsRNA no.":1,"z-score, replicate 1":0.35}
{"target gene":"CG5989","dsRNA no.":1,"z-score, replicate 1":0.14}
{"target gene":"CG34310","dsRNA no.":1,"z-score, replicate 1":0.74}
{"target gene":"Afti","dsRNA no.":1,"z-score, replicate 1":0.41}

Already shown: entries from further up.
{"target gene":"Cpr","dsRNA no.":1,"z-score, replicate 1":0.29}
{"target gene":"CG32213 + CG12519 + 825-Oak + 1 more","dsRNA no.":1,"z-score, replicate 1":0.27}
